Data taken from patent publication US6913917B2, “Anti-cocaine catalytic antibody” (priority 1996, dated 2005).

Assay: Plasma concentrations at death by HPLC
Type: in vivo, rat
Details: antibody 100 mg/kg

B1: Mab 15A10: mouse monoclonal anti-cocaine catalytic antibody elicited by TSA 1; most active (antibody, V domains shown)
VH: SGPELVKPGASVKVSCKASGYSFTDYNMYWVKQNHGESLEWIAYIDPSNGDTFYNQKFQGKATVTLDKSSSTAFMHLNSLTSEDSAVYYCARGGGLFAFWGQGTLVTVSA
VL: AVVTQESALTTSPGETVTLTCRSSTGTITSDNYANWVQEKPDHLFSGLIGVNNYRPPGVPARFSGSLTGDKAVLTITGAQTEDEAIYFCALWYSNHWVFGGGTKLTVLG
modifications: mouse
Q: With B1 as the molecule, how does the “plasma cocaine concentration at death versus control groups” value (result in words) read?
A: Its value is “not significantly different”.

Q: What about the “plasma benzoic acid concentration” value (at death) of the same molecule?
A: The value was 3.85 ± 0.89 µM.

Q: And the “plasma concentration of benzoyl ecgonine” value (at death)?
A: Its value is 7.68 ± 1.07 mM.
